Experimental data taken from the supplement of paper PMC12819154, “High-throughput peptide-centric local stability assay extends protein–ligand identification to membrane proteins, tissues and bacteria” (Nature Structural & Molecular Biology, 2025).
Some of the results follow. Small differences around the control level are noise.

The chains behind the UniProt entries cited, without tags or fusion partners. Where a name states a change or a piece, a line headed by the entry shows the natural chain unless it says otherwise.
UniProt Q8BIJ7: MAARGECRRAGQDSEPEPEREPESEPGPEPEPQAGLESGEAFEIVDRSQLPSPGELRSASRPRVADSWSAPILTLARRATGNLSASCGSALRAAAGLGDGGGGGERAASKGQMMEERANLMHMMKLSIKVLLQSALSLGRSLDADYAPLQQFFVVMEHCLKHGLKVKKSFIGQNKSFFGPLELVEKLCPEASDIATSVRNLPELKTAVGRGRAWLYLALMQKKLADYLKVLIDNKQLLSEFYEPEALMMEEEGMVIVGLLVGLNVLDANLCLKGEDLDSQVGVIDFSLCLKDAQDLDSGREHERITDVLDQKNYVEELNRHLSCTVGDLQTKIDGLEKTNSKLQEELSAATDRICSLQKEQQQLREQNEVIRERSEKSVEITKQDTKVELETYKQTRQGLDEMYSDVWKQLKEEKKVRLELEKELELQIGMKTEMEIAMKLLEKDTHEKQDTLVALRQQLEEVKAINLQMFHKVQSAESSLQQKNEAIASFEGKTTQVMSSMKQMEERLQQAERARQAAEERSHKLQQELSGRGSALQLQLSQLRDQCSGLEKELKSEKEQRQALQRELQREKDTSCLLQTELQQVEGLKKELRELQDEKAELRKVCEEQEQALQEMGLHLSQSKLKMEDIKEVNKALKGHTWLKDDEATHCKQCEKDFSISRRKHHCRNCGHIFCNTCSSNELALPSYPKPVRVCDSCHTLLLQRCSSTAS
UniProt Q8C0C7: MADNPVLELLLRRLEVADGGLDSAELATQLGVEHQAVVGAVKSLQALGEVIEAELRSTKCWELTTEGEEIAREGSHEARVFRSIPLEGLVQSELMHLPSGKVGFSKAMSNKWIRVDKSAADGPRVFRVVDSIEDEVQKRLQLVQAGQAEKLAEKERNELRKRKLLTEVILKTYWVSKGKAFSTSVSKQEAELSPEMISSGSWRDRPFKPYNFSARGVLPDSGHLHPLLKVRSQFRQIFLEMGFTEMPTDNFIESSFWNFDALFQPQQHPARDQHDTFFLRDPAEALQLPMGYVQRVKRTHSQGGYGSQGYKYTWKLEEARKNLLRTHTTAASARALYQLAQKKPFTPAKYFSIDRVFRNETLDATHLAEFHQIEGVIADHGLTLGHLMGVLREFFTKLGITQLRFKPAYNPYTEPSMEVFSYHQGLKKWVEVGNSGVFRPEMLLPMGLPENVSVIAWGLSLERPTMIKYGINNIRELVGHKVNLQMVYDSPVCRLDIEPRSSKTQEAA
UniProt Q8BQ30: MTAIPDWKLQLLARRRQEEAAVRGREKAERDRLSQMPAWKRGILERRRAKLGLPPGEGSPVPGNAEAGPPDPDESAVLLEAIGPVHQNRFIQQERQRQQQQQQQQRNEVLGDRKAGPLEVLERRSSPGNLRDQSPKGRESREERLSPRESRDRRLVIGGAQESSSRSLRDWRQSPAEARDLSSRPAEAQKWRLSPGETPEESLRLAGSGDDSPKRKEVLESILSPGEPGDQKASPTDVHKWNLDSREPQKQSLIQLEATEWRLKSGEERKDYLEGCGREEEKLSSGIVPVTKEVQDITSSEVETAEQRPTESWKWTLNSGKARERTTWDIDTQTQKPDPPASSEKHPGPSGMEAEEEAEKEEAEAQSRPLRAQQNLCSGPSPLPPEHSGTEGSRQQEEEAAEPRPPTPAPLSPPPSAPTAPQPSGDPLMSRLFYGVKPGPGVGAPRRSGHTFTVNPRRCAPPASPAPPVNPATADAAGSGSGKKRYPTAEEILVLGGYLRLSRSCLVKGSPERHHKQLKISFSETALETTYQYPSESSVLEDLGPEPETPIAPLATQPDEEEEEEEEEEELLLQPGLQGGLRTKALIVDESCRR
UniProt Q8BL48: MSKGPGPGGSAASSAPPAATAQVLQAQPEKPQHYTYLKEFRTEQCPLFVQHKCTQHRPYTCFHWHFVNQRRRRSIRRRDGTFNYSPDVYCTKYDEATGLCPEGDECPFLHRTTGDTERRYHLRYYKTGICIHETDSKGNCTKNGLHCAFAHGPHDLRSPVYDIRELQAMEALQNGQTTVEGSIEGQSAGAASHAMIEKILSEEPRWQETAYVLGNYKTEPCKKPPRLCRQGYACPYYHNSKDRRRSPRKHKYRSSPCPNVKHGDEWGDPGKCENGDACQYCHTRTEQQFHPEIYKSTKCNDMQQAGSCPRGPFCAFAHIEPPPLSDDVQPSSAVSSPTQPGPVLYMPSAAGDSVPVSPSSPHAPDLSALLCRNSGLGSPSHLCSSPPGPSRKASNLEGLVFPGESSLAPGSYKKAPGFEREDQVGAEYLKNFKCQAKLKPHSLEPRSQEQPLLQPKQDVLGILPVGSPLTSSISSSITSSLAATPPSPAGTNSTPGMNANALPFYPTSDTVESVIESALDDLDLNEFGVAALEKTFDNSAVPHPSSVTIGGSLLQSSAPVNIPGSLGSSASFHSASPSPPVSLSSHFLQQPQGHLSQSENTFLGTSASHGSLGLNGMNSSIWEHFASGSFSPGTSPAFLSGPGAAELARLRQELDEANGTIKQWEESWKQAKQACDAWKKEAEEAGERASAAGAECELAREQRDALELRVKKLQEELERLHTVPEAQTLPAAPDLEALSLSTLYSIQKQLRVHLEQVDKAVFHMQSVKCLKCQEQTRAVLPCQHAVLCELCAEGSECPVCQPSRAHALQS
UniProt Q8C3B8: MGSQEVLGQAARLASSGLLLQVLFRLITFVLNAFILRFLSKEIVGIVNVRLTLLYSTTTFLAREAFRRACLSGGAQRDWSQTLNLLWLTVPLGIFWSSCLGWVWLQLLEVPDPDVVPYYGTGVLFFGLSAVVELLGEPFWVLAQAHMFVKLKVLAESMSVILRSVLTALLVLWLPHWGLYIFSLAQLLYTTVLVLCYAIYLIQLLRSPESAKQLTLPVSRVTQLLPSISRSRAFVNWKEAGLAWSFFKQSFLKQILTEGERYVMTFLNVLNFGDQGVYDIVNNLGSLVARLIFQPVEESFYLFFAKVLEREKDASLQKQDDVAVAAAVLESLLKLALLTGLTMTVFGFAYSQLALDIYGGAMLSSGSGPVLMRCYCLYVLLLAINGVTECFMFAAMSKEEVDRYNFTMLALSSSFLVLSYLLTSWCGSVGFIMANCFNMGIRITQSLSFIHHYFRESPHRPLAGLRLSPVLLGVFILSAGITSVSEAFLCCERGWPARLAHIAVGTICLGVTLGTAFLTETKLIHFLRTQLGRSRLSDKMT
UniProt Q8CG50: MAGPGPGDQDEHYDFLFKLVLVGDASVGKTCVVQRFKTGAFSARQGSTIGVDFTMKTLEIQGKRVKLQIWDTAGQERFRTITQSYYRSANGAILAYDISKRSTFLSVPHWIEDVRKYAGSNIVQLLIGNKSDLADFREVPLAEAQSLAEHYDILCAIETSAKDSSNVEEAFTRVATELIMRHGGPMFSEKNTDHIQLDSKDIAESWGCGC
UniProt Q8BYU6: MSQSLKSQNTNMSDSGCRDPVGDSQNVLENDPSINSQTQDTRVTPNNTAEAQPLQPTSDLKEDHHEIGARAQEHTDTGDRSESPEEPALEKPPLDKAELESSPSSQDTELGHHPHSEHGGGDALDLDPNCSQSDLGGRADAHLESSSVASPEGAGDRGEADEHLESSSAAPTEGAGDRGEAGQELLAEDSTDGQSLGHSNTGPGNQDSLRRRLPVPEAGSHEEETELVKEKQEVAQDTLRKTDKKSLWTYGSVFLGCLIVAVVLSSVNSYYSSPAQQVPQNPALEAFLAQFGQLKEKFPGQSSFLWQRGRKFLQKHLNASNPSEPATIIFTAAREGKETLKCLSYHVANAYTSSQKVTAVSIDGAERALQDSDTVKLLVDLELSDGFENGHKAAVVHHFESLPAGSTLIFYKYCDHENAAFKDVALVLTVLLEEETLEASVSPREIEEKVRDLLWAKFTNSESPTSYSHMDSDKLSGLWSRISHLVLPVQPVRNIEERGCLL
UniProt Q8CE96: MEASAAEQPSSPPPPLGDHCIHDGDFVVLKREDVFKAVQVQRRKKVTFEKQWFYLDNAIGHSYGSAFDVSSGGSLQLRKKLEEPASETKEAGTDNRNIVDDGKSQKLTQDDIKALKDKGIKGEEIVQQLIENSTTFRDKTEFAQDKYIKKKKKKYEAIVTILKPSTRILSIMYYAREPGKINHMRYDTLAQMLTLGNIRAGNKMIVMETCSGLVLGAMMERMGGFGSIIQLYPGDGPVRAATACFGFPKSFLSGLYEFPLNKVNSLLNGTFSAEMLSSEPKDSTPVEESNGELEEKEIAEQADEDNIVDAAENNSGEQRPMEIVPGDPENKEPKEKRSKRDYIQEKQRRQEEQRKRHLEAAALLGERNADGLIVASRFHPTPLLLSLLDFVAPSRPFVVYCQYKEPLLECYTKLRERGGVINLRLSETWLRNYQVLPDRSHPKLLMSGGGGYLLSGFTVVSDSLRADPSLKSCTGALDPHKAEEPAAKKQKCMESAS
UniProt Q8BW75, whole entry: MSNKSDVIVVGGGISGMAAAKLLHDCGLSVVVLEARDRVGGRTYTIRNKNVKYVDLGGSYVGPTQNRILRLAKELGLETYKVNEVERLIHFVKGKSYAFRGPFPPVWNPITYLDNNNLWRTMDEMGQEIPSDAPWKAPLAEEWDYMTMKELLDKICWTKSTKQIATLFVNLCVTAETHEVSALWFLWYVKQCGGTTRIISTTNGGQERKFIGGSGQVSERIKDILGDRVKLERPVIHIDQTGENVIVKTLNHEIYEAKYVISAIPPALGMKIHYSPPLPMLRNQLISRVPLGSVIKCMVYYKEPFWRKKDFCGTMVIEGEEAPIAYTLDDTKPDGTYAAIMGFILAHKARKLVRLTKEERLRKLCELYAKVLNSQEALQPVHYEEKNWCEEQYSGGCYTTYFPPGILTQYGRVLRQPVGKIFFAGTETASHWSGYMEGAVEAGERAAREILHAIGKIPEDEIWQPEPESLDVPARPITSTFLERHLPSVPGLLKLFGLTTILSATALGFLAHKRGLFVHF
UniProt Q8BRT1: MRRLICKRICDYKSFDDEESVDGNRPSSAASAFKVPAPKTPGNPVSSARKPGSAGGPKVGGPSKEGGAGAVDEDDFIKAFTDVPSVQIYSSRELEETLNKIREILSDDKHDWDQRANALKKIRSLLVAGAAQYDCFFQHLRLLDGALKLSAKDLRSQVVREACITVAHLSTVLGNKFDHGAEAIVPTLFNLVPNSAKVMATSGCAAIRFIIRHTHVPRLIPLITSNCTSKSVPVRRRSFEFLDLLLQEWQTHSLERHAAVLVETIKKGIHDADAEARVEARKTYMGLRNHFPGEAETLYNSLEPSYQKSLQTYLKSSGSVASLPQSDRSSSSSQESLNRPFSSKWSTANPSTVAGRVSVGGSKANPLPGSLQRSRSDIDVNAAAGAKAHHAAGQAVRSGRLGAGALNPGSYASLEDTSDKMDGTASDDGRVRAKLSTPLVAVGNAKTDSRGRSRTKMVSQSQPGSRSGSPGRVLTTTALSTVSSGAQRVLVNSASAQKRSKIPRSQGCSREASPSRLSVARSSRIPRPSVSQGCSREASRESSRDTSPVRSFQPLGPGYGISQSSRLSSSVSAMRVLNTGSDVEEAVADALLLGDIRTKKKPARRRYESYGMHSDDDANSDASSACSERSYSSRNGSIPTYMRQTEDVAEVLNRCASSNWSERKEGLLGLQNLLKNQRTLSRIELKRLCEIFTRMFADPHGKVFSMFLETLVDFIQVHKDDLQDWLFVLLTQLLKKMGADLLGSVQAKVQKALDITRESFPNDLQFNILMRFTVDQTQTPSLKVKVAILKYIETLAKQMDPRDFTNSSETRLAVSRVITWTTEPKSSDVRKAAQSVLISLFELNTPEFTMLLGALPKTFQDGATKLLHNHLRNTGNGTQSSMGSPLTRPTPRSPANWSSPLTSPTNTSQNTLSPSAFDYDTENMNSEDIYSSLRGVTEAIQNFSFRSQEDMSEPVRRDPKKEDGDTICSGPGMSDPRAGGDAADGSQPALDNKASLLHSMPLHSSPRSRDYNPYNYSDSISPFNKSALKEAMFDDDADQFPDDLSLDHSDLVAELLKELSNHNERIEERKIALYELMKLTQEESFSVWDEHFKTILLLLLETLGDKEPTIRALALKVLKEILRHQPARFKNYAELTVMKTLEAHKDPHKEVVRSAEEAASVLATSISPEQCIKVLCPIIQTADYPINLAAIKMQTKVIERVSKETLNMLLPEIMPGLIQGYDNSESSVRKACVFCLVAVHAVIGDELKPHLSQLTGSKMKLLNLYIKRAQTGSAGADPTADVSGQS
UniProt Q8BH58: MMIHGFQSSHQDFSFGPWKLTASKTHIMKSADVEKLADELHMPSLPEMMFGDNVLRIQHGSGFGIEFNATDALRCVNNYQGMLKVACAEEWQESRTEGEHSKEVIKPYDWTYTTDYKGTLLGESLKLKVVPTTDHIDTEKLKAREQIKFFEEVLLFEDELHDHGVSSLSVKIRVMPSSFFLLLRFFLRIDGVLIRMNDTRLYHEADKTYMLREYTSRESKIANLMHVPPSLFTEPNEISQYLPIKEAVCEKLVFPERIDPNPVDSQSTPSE
UniProt Q8BTE0: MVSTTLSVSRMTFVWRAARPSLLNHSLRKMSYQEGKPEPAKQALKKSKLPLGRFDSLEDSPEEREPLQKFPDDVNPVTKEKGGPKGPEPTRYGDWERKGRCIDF

Compound: CN[C@@H]1C[C@H]2O[C@@](C)([C@@H]1OC)n1c3ccccc3c3c4c(c5c6ccccc6n2c5c31)C(=O)NC4 [staurosporine]
Assay: log2 fold change of pooled soluble protein (PISA), ligand vs vehicle (log2 ratio); higher = more thermally stabilized
Details: ligand concentration: 20 uM; assay format: PISA pool 52.9/55.5/58.6 C

| Target | log2 fold change of pooled soluble protein |
| --- | --- |
| UniProt Q8C729 | -0.387 |
| UniProt Q8BGV0 | 0.181 |
| UniProt Q8CCF0 | -0.376 |
| UniProt Q8BTM8 | -0.0878 |
| UniProt Q8BWQ6 | -0.0269 |
| UniProt Q8BIJ7 | -0.0601 |
| UniProt Q8C0C7 | -0.321 |
| UniProt Q8BJF9 | -0.0589 |
| UniProt Q8CFJ7 | -0.154 |
| UniProt Q8BVY0 | -0.294 |
| UniProt Q8BH24 | -0.0489 |
| UniProt Q8C0C0 | -0.132 |
| UniProt Q8BQ30 | -0.0362 |
| UniProt Q8BL48 | 0.0316 |
| UniProt Q8BH86 | -0.0246 |
| UniProt Q8C3B8 | -0.37 |
| UniProt Q8CG50 | 0.173 |
| UniProt Q8BXK8 | -0.186 |
| UniProt Q8BYU6 | -0.136 |

| Target | log2 fold change of pooled soluble protein |
| --- | --- |
| UniProt Q8CE96 | 0.0239 |
| UniProt Q8BWG8 | -0.178 |
| UniProt Q8BI84 | 0.00727 |
| UniProt Q8BW75 | -0.00449 |
| UniProt Q8BSF4 | 0.0398 |
| UniProt Q8BRT1 | 0.0465 |
| UniProt Q8C3W1 | 0.089 |
| UniProt Q8BH58 | 0.136 |
| UniProt Q8C052 | -0.343 |
| UniProt Q8C4Y3 | 0.192 |
| UniProt Q8BVF2 | 0.115 |
| UniProt Q8BMB3 | -0.00805 |
| UniProt Q8BTE0 | 0.117 |
| UniProt Q8BHG2 | 0.116 |
| UniProt Q8BSN5 | 0.0166 |
| UniProt Q8BQU3 | -0.00928 |
| UniProt Q8BRF7 | -0.0182 |
| UniProt Q8BIH0 | -0.0828 |

Reprinted at random: 2 records from the list, in no set order.

| Target | log2 fold change of pooled soluble protein |
| --- | --- |
| UniProt Q8BQ30 | -0.0362 |
| UniProt Q8CE96 | 0.0239 |
